# Experimental data taken from article PMC10286485.
# Amino acid sequences for entries named in this document (tags omitted). Residues count along the entry.
# UniProt Q61221: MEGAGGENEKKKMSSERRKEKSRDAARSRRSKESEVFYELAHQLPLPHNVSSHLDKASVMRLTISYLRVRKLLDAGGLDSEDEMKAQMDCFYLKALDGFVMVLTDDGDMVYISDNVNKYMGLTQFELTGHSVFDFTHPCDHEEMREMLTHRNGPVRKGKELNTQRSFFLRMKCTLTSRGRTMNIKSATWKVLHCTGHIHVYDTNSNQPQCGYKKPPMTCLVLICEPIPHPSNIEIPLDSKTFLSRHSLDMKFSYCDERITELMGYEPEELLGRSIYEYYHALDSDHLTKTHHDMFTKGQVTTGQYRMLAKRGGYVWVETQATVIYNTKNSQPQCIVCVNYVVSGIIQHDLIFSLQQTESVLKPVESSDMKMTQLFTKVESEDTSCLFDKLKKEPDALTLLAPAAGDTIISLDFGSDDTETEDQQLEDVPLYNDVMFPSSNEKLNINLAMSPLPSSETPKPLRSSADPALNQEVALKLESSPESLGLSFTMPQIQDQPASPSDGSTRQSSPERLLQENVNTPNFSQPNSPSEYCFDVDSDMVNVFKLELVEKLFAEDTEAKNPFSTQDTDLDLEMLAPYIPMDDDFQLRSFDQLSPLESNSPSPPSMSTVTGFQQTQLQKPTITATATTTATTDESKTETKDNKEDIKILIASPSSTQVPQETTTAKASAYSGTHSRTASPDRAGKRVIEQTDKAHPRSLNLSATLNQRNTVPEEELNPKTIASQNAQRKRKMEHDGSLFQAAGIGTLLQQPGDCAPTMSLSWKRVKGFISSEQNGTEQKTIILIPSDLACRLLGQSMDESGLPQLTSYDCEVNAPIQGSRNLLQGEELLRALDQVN
# UniProt Q9EQY0, residues 21-977: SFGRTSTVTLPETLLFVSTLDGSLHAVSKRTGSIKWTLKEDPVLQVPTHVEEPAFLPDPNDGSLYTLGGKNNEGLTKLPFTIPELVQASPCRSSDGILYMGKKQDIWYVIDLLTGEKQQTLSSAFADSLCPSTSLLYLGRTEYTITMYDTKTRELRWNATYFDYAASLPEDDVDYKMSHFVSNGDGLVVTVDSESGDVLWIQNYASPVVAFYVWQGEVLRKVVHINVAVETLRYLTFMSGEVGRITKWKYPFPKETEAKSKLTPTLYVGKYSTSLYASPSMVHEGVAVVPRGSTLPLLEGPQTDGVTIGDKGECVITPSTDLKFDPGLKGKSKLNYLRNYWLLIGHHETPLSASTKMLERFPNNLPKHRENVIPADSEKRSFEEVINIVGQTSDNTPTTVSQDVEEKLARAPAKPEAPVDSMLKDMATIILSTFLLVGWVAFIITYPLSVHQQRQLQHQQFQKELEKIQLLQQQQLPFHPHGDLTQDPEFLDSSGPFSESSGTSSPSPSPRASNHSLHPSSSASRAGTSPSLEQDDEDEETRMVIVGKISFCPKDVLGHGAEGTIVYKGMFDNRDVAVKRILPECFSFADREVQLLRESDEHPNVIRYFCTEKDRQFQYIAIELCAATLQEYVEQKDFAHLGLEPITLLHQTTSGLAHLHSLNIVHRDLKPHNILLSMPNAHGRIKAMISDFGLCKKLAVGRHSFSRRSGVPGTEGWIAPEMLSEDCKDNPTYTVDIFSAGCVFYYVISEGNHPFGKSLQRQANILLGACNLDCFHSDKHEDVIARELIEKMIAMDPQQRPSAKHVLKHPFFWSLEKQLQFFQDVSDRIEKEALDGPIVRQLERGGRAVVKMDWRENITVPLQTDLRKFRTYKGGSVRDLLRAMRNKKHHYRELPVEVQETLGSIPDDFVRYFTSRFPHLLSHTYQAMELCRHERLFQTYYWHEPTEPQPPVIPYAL
# UniProt P20029, residues 20-655: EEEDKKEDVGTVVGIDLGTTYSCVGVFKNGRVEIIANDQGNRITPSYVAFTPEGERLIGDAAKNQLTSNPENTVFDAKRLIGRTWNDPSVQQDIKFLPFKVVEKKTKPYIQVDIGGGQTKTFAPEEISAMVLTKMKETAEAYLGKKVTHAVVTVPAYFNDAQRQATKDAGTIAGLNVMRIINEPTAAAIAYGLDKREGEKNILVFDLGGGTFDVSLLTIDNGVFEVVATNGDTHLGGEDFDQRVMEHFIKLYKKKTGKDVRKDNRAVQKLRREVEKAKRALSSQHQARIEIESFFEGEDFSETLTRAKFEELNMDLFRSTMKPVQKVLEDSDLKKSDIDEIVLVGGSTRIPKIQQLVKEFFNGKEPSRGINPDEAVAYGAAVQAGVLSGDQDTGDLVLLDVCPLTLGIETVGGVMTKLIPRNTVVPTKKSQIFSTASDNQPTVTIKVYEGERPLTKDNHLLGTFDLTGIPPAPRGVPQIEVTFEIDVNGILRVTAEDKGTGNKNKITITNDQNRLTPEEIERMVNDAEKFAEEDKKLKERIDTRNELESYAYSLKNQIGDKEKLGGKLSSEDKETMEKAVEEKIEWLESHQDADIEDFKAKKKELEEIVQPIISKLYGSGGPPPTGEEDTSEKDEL
# No constants are given. Whether binding was seen depends on the method and setting. In cells and extracts the contact can be indirect. Some results given as binding are weak or reduced against the parent protein; the word gives no strength.
# Target: Hypoxia-Inducible Factor 1α (mouse (endogenous in J774)) (UniProt Q61221)
# Test: co-IP; HIF1α immunoprecipitated (anti-HIF1α, Protein A-Sepharose, 4 °C overnight; lysis buffer 1% NP-40, 0.1% SDS, 0.1% deoxycholic acid, 50 mM Tris pH 7.4) from J774 cells under normoxia (21% O2) or hypoxia (2% O2, 1 h); immunoblot for GRP78, IRE1α, PERK, ATF6; also after 1 h pre-treatment with 4µ8c (100 µM) or KIRA6 (1 µM)
row,Substance,binding
1,inositol-requiring enzyme 1α (from UniProt Q9EQY0 21-977),binds
2,Glucose-Regulated Protein-78 (from UniProt P20029 20-655),binds
